From PubChem BioAssay AID1347076 (National Center for Advancing Translational Sciences (NCATS), 2019)
Out of some 400,000 compounds screened, about 13,000 (3.2%) were called active. Inconclusive results, whose numbers are uncertain, are shown with a selection of clear calls. Calls come from the whole dose curve; as a rule, active = well fitted cell-killing curve with a large enough effect; inconclusive = small, poorly fitted or top-dose-only effect, or effect the other way; inactive = flat fitted curve, though single readings scatter. A potency beside an inconclusive call is a rough fit, not a confirmed value.

Experiment: qHTS assay for MDR1-selective chemotherapeutics: Primary screen using the drug-selected MDR subline cells KB-V1; note: nearly all actives have a fitted effect of over 60% in size
Settings: KB-V1 MDR cells viability, CellTiter-Glo, 72 h; activity change, negative = cytotoxicity: at 46.1 µM (top of the series)
Method in brief: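 Readout: CellTiter-Glo luminescence, 10 min after addition. Cells: KB-V1 MDR subline, 72 h at 37 degrees C with compound. Analysis: corrected, normalized data fitted to concentration-effect curves.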
% is set by controls: 0 for no effect and ±100 for the full control effect; potency is the fitted concentration of half-maximal effect.

Row | Structure (SMILES) | Potency | activity change, negative = cytotoxicity
1 | COc1ccc(S(=O)(=O)N2CCCCC2c2cc(C(=O)NCc3ccc(F)cc3)no2)cc1 (stereo unspecified) | inactive | 
2 | Cc1cccc(C)c1NC(=S)N/N=C/c1c(Cl)cccc1Cl | inactive | 
3 | CSc1ccccc1NC(=O)CN(C)C(=O)c1ccc(NC(=O)c2cccs2)cc1 | inconclusive: 0.0103 µM [rising, full curve, poor fit] | 
4 | O=C(COC(=O)[C@@H]1CC(O)CN1S(=O)(=O)c1ccccc1[N+](=O)[O-])c1ccccc1 (stereo partly specified) | inconclusive: 29.1 µM [rising, single point] | 
5 | OCCC1CN(Cc2cccc3nccnc23)CCN1Cc1ccc(F)cc1 (stereo unspecified) | inconclusive: 18.4 µM [cytotoxic, partial curve] | 
6 | Cc1ccc(NC(=O)NNS(=O)(=O)c2ccc(Br)cc2)cc1 | inactive | 
7 | NC(=O)c1nn(CC(=O)Nc2cccc(S(=O)(=O)N3CCCCCC3)c2)c(=O)c2ccccc12 | inconclusive: 20.6 µM [rising, single point] | 
8 | Cc1nnc(SCc2cccc(CSc3nnc(C)s3)c2)s1 | inconclusive: 29.1 µM [cytotoxic, single point] | 
9 | Nn1c(SCC(=O)NC2CCCCC2)nnc1-c1ccccc1F | inconclusive: 32.6 µM [cytotoxic, single point] | 
10 | COc1cccc(Cn2c3ccc(NC(=O)CCc4ccc(F)cc4)cc3c(=O)n2C)c1 | inconclusive: 16.4 µM [cytotoxic, single point] | 
11 | O=C(CCl)Nc1ccc2c(c1)OCO2 | inconclusive: 18.4 µM [cytotoxic, single point] | 
12 | Cc1nc2ccccn2c1C(=O)N/N=C/c1ccc([N+](=O)[O-])cc1 | inconclusive: 0.461 µM [rising, full curve, poor fit] | 
13 | Cc1ccc(C)c(NS(=O)(=O)c2cc(C(=O)NCCSC3CCCCC3)ccc2C)c1 | inconclusive: 29.1 µM [cytotoxic, single point] | 
14 | Cc1ccc(-c2ccc(/C=C/C(=O)c3ccccc3)o2)cc1 | inconclusive: 23.1 µM [cytotoxic, partial curve, poor fit] | 
15 | Cc1nc(-c2ccc(NC(=O)c3ccccc3)cc2)cs1 | inconclusive: 16.4 µM [cytotoxic, single point] | 
16 | O=C(COC(=O)c1ccccc1-n1cnnn1)c1ccc(Br)cc1 | inconclusive: 4.61 µM [rising, full curve, poor fit] | 
17 | CC(C)OC(=O)/C=C1\C[C@@H](c2ccccc2C(F)(F)F)O[C@@H](c2ccccc2C(F)(F)F)O1 | inactive | 
18 | CN(C)c1nc(SCCOC(=O)Nc2ccccc2)nc(N(C)C)n1 | active: 14.6 µM | 
19 | Cc1nnc2n(Cc3ccccc3)c(=O)c3c4c(sc3n12)COC(C(C)C)C4 (stereo unspecified) | inconclusive: 29.1 µM [cytotoxic, single point] | 
20 | CC1=Nc2cc(C(=O)NCCc3ccc(Cl)cc3)ccc2Sc2c(C)ccc(C)c21 | active: 1.64 µM | 
21 | COc1ccc(CCn2c(-n3nc(C)cc3C)nc3c2c(=O)[nH]c(=O)n3C)cc1 | active: 1.64 µM | 
22 | Cc1cc(C)nc(N2CCCC(CCC(=O)NCc3ccc(F)c(F)c3)C2)n1 (stereo unspecified) | inconclusive: 5.17 µM [cytotoxic, full curve] | 

Row | Structure (SMILES) | Potency | activity change, negative = cytotoxicity
23 | Cc1ccccc1/C=N/n1c(C2CCCCC2)n[nH]c1=S | inactive | 
24 | CC(=O)Nc1ccc(NC(=O)CCS(=O)(=O)c2ccc3c(c2)CC(=O)N3C)cc1 | inconclusive: 23.1 µM [rising, single point] | 
25 | Cc1cc(C)c(C(=O)COC(=O)c2cccc(S(=O)(=O)NCc3ccccc3)c2)cc1C | active: 18.4 µM | 
26 | CC(C)(C)OC(=O)C[C@H]1C/C=C\C[C@H](CC(=O)NCCO)C(=O)NCCOC1=O | inconclusive: 20.6 µM [rising, single point] | 
27 | O=C(c1ccc2nsnc2c1)N1CCN(c2ccc([N+](=O)[O-])cc2)CC1 | inactive | 
28 | CCOC(=O)CC(=O)CSc1nc2ccccc2c(=O)n1CCc1ccc(S(N)(=O)=O)cc1 | inactive | 
29 | Cc1ccsc1/C=N/Nc1ncc(Cl)cc1Cl | inconclusive: 25.9 µM [cytotoxic, single point] | 
30 | O=S(=O)(c1ccc2c(c1)OCCO2)N1CCC(n2cnc3cc(F)ccc32)CC1 | inconclusive: 8.2 µM [cytotoxic, partial curve] | 
31 | Cc1nc2cc(-c3ccccc3)sc2c(=O)n1N | inactive | 
32 | O=C1C(F)=CC(COC(c2ccccc2)(c2ccccc2)c2ccccc2)OC1n1cc(F)c(=O)[nH]c1=O (stereo unspecified) | inconclusive: 7.31 µM [cytotoxic, partial curve, poor fit] | 
33 | O=C(Nc1ccc2c(c1)OCO2)NC1CCN(Cc2ccccc2)CC1 | inconclusive: 8.2 µM [cytotoxic, partial curve] | 
34 | O=Cc1ccccc1OCc1ccc2c(c1)OCO2 | inactive | 
35 | CCOC(=O)N1CCN(c2cc(=O)n(-c3ccc(C)cc3)c(=O)[nH]2)CC1 | inactive | 
36 | Cc1nc2scc(C)n2c(=O)c1S(=O)(=O)Nc1cccc(C(F)(F)F)c1 | inconclusive: 29.1 µM [cytotoxic, single point] | 
37 | Cc1nonc1OC(C)CNc1ccc([N+](=O)[O-])cc1 (stereo unspecified) | inconclusive: 8.2 µM [cytotoxic, partial curve] | 
38 | O=C(c1ccco1)N1CCN(C(c2ccccn2)c2nnnn2C2CCCC2)CC1 (stereo unspecified) | inconclusive: 20.6 µM [cytotoxic, single point] | 
39 | COc1cccc(-n2nnc(S(=O)(=O)c3ccc(C)cc3)c2N)c1 | inconclusive: 13 µM [cytotoxic, partial curve] | 
40 | CCOc1ccc(OCCC(=O)N2CCN(S(=O)(=O)c3ccc(F)cc3)CC2)cc1 | inactive | 
41 | O=C(Nc1ccccc1C(=O)NCc1ccc(Cl)cc1)c1ccco1 | active: 8.2 µM | 
42 | CC12CCC(C(=O)Nc3nc4ccc(Br)cc4s3)(OC1=O)C2(C)C (stereo unspecified) | inconclusive: 3.26 µM [cytotoxic, partial curve, poor fit] | 
43 | COc1ccc(CN2CCNC(=O)C2CC(=O)NC2CCCC2)c(C)c1C (stereo unspecified) |  | inconclusive: -7.52%
44 | CCOC(=O)c1[nH]c2cc3c(cc2c1NC(=O)CN1CCc2ccccc2C1)OCO3 | inconclusive: 3.26 µM [cytotoxic, full curve, poor fit] | 

Row | Structure (SMILES) | Potency | activity change, negative = cytotoxicity
45 | CCOc1ccc(OCCNC2CCCC2)cc1 | inconclusive: 14.6 µM [cytotoxic, partial curve, poor fit] | 
46 | c1ccc2c3n(nc2c1)CCCCO3 | inconclusive: 29.1 µM [rising, single point] | 
47 | Cc1ccc(S(=O)(=O)N2C(=O)C(C)SC2=Nc2ccccc2)cc1 (stereo unspecified) | inconclusive: 16.4 µM [cytotoxic, single point] | 
48 | O=C(O)C1CCCN1C(=O)C12CC3CC(CC(C3)C1)C2 (stereo unspecified) | inconclusive: 29.1 µM [rising, single point] | 
49 | COc1ccc(C(=O)/C=C/Nc2cc(C)on2)c(OC)c1 | inconclusive: 18.4 µM [cytotoxic, partial curve, poor fit] | 
50 | COc1cc(C2=Nc3c(c(C)nn3-c3ccccc3)P(=O)(N3CCOCC3)O2)cc(OC)c1OC (stereo unspecified) | inconclusive: 16.4 µM [cytotoxic, partial curve, poor fit] | 
51 | O=C(Nc1cccc(Cl)c1)c1ccc(F)c(S(=O)(=O)N2CCN(c3ccccn3)CC2)c1 | inconclusive: 18.4 µM [cytotoxic, partial curve] | 
52 | Cc1ccc(S(=O)(=O)N2CCCC(C(=O)NCCC(C)C)C2)cc1 (stereo unspecified) | inconclusive: 11.6 µM [cytotoxic, partial curve, poor fit] | 
53 | CCCC1=Nc2cc(C(=O)N3CCC(C)CC3)ccc2Sc2ccc(C)cc21 | inactive | 
54 | O=C(Nc1ccccn1)C1(c2cccs2)CCOCC1 | inconclusive: 16.4 µM [cytotoxic, partial curve] | 
55 | CC(C(=O)Nc1cccc([N+](=O)[O-])c1)[n+]1ccccc1 (stereo unspecified) | inconclusive: 1.03 µM [rising, partial curve, poor fit] | 
56 | Cc1ccc(OCC(=O)Nc2ccc3oc(=O)ccc3c2)c(C)c1 | inconclusive: 23.1 µM [cytotoxic, single point] | 
57 | CCN(CC)CCNC(=O)C1(O)c2cc(Br)ccc2NC(=O)N1c1c(F)cccc1F (stereo unspecified) | inactive | 
58 | Cc1ccc(O)c(C(CC(=O)NCc2ccco2)c2ccccc2)c1 (stereo unspecified) | inconclusive: 29.1 µM [cytotoxic, single point] | 
59 | Cc1ccc([C@H]2C[C@@H](O)[C@H](n3cc(COC(=O)c4ccccc4)nn3)CN2CC2CCCCC2)cc1 | inconclusive: 29.1 µM [cytotoxic, single point] | 
60 | O=c1c2ccccc2c(C=NCCc2ccccc2)c(O)n1Cc1ccccc1 | inconclusive: 23.1 µM [cytotoxic, partial curve] | 
61 | COc1ccc(C(=O)Nc2nc(-c3ccc(S(=O)(=O)N4CCOCC4)cc3)cs2)cc1 | active: 16.4 µM | 
62 | COc1cc(OC)cc(C(=O)N[C@H](C(=O)OCc2cc(=O)oc3cc(C)ccc23)C(C)C)c1 | active: 3.66 µM | 
63 | Cc1ccc(N2C(=O)C(CN3CCCC3)C2c2ccccc2)cc1 (stereo unspecified) | inconclusive: 9.2 µM [cytotoxic, partial curve, poor fit] | 
64 | Cc1cc(C)nc(N2CCC(C(=O)NCCc3ccccc3)CC2)n1 | inconclusive: 0.0411 µM [cytotoxic, full curve] | 
65 | Cn1cccc1/C=N/NC(=O)C12CC3CC(CC(C3)C1)C2 | inconclusive: 11.6 µM [rising, partial curve, poor fit] | 
66 | CCOc1ccc(S(=O)(=O)N2CCC(C(=O)Nc3ccccc3N3CCCC3)CC2)cc1 | inconclusive: 18.4 µM [cytotoxic, single point] | 

Rewritten as a markdown table: part of the list above.

| Row | Structure (SMILES) | Potency | activity change, negative = cytotoxicity |
| --- | --- | --- | --- |
| 45 | CCOc1ccc(OCCNC2CCCC2)cc1 | inconclusive: 14.6 µM [cytotoxic, partial curve, poor fit] |  |
| 46 | c1ccc2c3n(nc2c1)CCCCO3 | inconclusive: 29.1 µM [rising, single point] |  |
| 47 | Cc1ccc(S(=O)(=O)N2C(=O)C(C)SC2=Nc2ccccc2)cc1 (stereo unspecified) | inconclusive: 16.4 µM [cytotoxic, single point] |  |
